# Data source: PubChem BioAssay AID1259308 (NCATS, 2017)
# Assay: 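Knock-downs that increase output of a recombinant reporter protein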 (primary screen)
# System: human HEK293 embryonic kidney cells stably expressing firefly luciferase (HEK-CMV-Luc2-Hygro)
# Knock-down reagent: single siRNA against human genes, 0.8 pmol siRNA per well
# Timing: 72 h
# Measured: 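Reporter luminescence and viable-cell signal on separate replicate plates, given as percent of non-targeting control and median/MAD z-scores, plus per-cell luciferase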
# Reading the numbers: total luciferase, z-score and total luciferase, % of control: higher = more reporter protein produced; luciferase per cell, z-score: higher = more reporter output per viable cell
# Active means: 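An siRNA counts as active if its total luciferase robust z-score exceeds 3; genes with two or more such siRNAs out of three were retested with fresh siRNAs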
# Meaning of the calls: active = raised luciferase; inactive = no rise
# The whole screen tested about 59,000 reagents; this is a random part of them. About 1,510 of them (2.6%) count as active. 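Calls use total luciferase alone and ignore viability, so some active siRNAs may act by altering cell number.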 The numbers tell different reagents against one gene apart. Further read-outs or replicates are left out here.
The opening 3 records as a preview:
Gene,siRNA no.,"total luciferase, z-score","total luciferase, % of control","luciferase per cell, z-score",outcome
PAX4,1,0.894,99.7,0.415,inactive
PAX4,2,-0.166,78.6,-0.358,inactive
PAX4,3,-0.669,68.6,-0.964,inactive

Results, repeating the preview:
Gene,siRNA no.,"total luciferase, z-score","total luciferase, % of control","luciferase per cell, z-score",outcome
PAX4,1,0.894,99.7,0.415,inactive
PAX4,2,-0.166,78.6,-0.358,inactive
PAX4,3,-0.669,68.6,-0.964,inactive
OSTF1,1,-0.335,75.2,-0.794,inactive
OSTF1,2,0.922,100,0.189,inactive
OSTF1,3,-0.953,62.9,1.12,inactive
RFPL4B,1,0.665,95.1,2.45,inactive
RFPL4B,2,-0.194,78,-0.201,inactive
RFPL4B,3,-0.303,75.9,0.0102,inactive
PTPN4,1,-1.57,50.7,-1.02,inactive
PTPN4,2,0.18,85.5,-0.172,inactive
PTPN4,3,-0.932,63.3,-1.11,inactive
NKAIN2,1,-0.468,72.6,-0.489,inactive
NKAIN2,2,-0.0536,80.8,0.256,inactive
NKAIN2,3,0.229,86.4,0.477,inactive
GBX2,1,0.525,92.3,-0.5,inactive
GBX2,2,-1.6,50,-0.264,inactive
GBX2,3,1.68,115,1.79,inactive
PHLPP2,1,-0.642,69.1,-0.751,inactive
PHLPP2,2,-0.82,65.6,-0.818,inactive
PHLPP2,3,0.231,86.5,0.0804,inactive
GPATCH11,1,-1.76,46.8,-1.74,inactive
GPATCH11,2,-0.291,76.1,0.879,inactive
GPATCH11,3,-0.764,66.7,-0.43,inactive
